Measured values as given in the supplement of paper PMC8104966.
Where “and” joins values, the source holds several entries; their conditions need not be identical. Equal entries are not always repeated. This is one part of the list. Repeats in this data set agree poorly, so a single value says little.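 Fusion between ACE2-bearing and full-length-spike-bearing U2OS cells was measured by imaging as the percentage of nuclei with both cell types' fluorescent markers. An inhibitory hit is a non-toxic compound whose fusion z-score is below -3, more than three standard deviations beneath the plate's DMSO wells.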

tested on: U2OS ACE2 x SARS-CoV-2 spike co-culture; experiment: cell-cell fusion (fraction fused) z-score vs plate DMSO control; higher = more fusion; conditions: 30 µM; 5 h; toxicity class: non-toxic, passed QC

Structure (SMILES) | cell-cell fusion (z-score)
NCCC(O)(P(=O)([O-])O)P(=O)([O-])O.[Na+].[Na+] [Pamidronate disodium salt] | inactive: 2.99
OCCN1C[C@@H](O)[C@@H](O)C(O)C1CO (some centres undefined) | inactive: 1.95
O=C(O)CNC(=O)C(CS)Cc1ccccc1 (racemic) [DL-Thiorphan] | inactive: 0.519
CNc1ccccc1C(=O)O | inactive: 2.39
CC(C)c1cccc(C(C)C)c1O [Propofol] | inactive: 2.44
CC[C@H]1OC(=O)[C@H](C)C(O[C@H]2C[C@@](C)(OC)[C@@H](O)[C@H](C)O2)[C@H](C)[C@@H](OC2O[C@H](C)C[C@H](N(C)C)[C@H]2O)[C@](C)(O)C[C@@H](C)CN(C)[C@H](C)[C@@H](O)[C@]1(C)O.O.O (some centres undefined) [Azithromycin dihydrate] | inactive: 1.77
C=CC[C@H](N)C(=O)O [L-allylglycine] | inactive: 2.45
Nc1ncn([C@@H]2O[C@H](CO)[C@@H](O)[C@@H]2O)c(=O)n1 [Azacitidine (Vidaza)] | inactive: 0.913
Cc1cn([C@H]2C=C[C@@H](CO)O2)c(=O)[nH]c1=O [2',3'-didehydro-3'-deoxythymidine] | inactive: 3.36
Cc1cn([C@H]2C=C[C@@H](CO)O2)c(=O)[nH]c1=O | inactive: -1.37
O=C(NCCO[N+](=O)[O-])c1cccnc1 | inactive: 1.05
COc1ccccc1OCC(O)COC(N)=O (centres undefined) [Methocarbamol] | inactive: 2.38
COc1cccc(OC)c1-c1cc(C(=O)NC2(C(=O)O)C3CC4CC(C3)CC2C4)nn1-c1ccc(C(=O)N(C)CCCN(C)C)cc1C(C)C.Cl (centres undefined) | inactive: 2.69
CCN1CCCC1CNC(=O)c1cc(S(N)(=O)=O)ccc1OC (racemic) [(±)-Sulpiride] | inactive: -0.478
CC(=O)OCC(=O)[C@@]1(O)[C@@H](C)CC2C3CCC4=CC(=O)C=C[C@]4(C)[C@@]3(F)[C@@H](O)C[C@@]21C (some centres undefined) | inactive: 0.312
NC(N)=Nc1nc(CSCC/C(N)=N\S(N)(=O)=O)cs1 | inactive: 3.76
CN1CCC(=C2c3ccccc3CCc3cccnc32)CC1.O=C(O)/C=C\C(=O)O | inactive: 0.318
Cl.N=C(N)NC(=N)Nc1cccc(Cl)c1 [1-(m-Chlorophenyl)-biguanide hydrochloride] | inactive: -0.801
Cl.N#Cc1ccc2[nH]cc(CCCCN3CCN(c4ccc5oc(C(N)=O)cc5c4)CC3)c2c1 | inactive: 1.64
CN1CCCCC1c1ccc(-c2cccnc2)nc1.Cl (centres undefined) | inactive: 0.885
COc1ccccc1CN[C@@H]1CCCN[C@@H]1c1ccccc1.Cl.Cl.O | inactive: 1.73 and inactive: 2.79
C[C@H]1CN(C[C@H](Cc2ccccc2)C(=O)NCC(=O)O)CC[C@@]1(C)c1cccc(O)c1 [Alvimopan] | inactive: 1.78

Structure (SMILES) | cell-cell fusion (z-score)
C=C1c2c(Cl)ccc(O)c2C(=O)C2=C(O)[C@]3(O)C(=O)C(C(N)=O)=C(O)[C@@H](N(C)C)[C@@H]3[C@@H](O)[C@H]12.O=C(O)c1cc(S(=O)(=O)O)ccc1O [Meclocycline sulfosalicylate salt] | inactive: 0.0644
COc1cc2occ(-c3ccc(OC)c(OC)c3OC)c(=O)c2cc1OC | inactive: 1.97
CCN(CC)CCOC(=O)C(c1ccccc1)c1ccccc1.Cl | inactive: 1.58
C[C@@H]1C/C=C/C=C/C=C/C=C/[C@H](O[C@@H]2O[C@H](C)[C@@H](O)[C@H](N)[C@@H]2O)C[C@@H]2O[C@](O)(C[C@@H](O)C[C@H]3O[C@@H]3/C=C/C(=O)O1)C[C@H](O)[C@H]2C(=O)O [Pimaricin] | inactive: 1.72
NC[C@H]1CC[C@H](C(=O)O)CC1 [Amstat] | inactive: 1.9
CC(C)=CCc1c2c(c3occ(-c4ccc(O)c(O)c4)c(=O)c3c1O)C=CC(C)(C)O2 | inactive: 2.91
O=C(Nc1cc(C(F)(F)F)cc(C(F)(F)F)c1)c1cc(Cl)ccc1O | inactive: 1.8
CC(C)C[C@H]1C(=O)N2CCC[C@H]2[C@]2(O)O[C@](NC(=O)[C@@H]3C=C4c5cccc6[nH]c(Br)c(c56)C[C@H]4N(C)C3)(C(C)C)C(=O)N12.CS(=O)(=O)O [Bromocriptine mesylate] | inactive: -2
Br.NC(=O)C(c1ccccc1)(c1ccccc1)[C@@H]1CCN(CCc2ccc3c(c2)CCO3)C1 [Darifenacin HBr] | inactive: 1.92
C#C[C@]1(O)CCC2C3CCc4cc(OC5CCCC5)ccc4C3CC[C@@]21C (some centres undefined) | inactive: 1.7
CCCCCCCCCCCC1=C(O)C(=O)C=C(O)C1=O [Embelin] | inactive: 1.72
Cc1nc(-c2ccc(OCC(C)C)c(C#N)c2)sc1C(=O)O [Febuxostat] | inactive: 1.62
CN1CCC(=C2c3ccccc3CCc3cccnc32)CC1.O=C(O)/C=C\C(=O)O.O=C(O)/C=C\C(=O)O [Azatadine Maleate] | inactive: 2.12
COc1cc(C(=O)OCCC[NH+]2CCC[NH+](CCCOC(=O)c3cc(OC)c(OC)c(OC)c3)CC2)cc(OC)c1OC.[Cl-].[Cl-] [Dilazep hydrochloride] | inactive: 1.89
CN1CCc2cc3c(cc2C1O)OCO3.Cl (centres undefined) | inactive: 2.68
Nc1nc2ccc(OC(F)(F)F)cc2s1 [Riluzole] | inactive: -0.245
O=C1C2C=CC=CC2=NC(=S)N1CCN1CCC(=C(c2ccc(F)cc2)c2ccc(F)cc2)CC1 (centres undefined) [Diacylglycerol Kinase Inhibitor II] | inactive: 0.102
CC(=O)OCC(=O)[C@@]1(O)CCC2C3CCC4=CC(=O)CC[C@]4(C)C3[C@@H](O)C[C@@]21C (some centres undefined) | inactive: 0.567
Oc1c(I)cc(Cl)c2cccnc12 [Clioquinol] | inactive: -0.331
O=c1cc(-c2ccccc2)oc2cc(O)c(O)c(O)c12 | inactive: 2.56
CC[N+](CC)(CC)CC(=O)Nc1c(C)cccc1C.[Br-] [Lidocaine N-ethyl bromide quaternary salt] | inactive: 1.98
C[C@@H]1CN(c2c(F)c(N)c3c(=O)c(C(=O)O)cn(C4CC4)c3c2F)C[C@H](C)N1 [Sparfloxacin] | inactive: 3.89

Structure (SMILES) | cell-cell fusion (z-score)
CC(C)(C)CC(C)(C)c1ccc(OCCOCC[N+](C)(C)Cc2ccccc2)cc1.[Cl-] | active: -6.89
CCCCCN(CCCCC)C(=O)C(CCC(=O)[O-])NC(=O)c1ccc(Cl)c(Cl)c1.[Na+] (centres undefined) [Lorglumide sodium] | inactive: 3.08
Brc1c(NC2=NCCN2)ccc2nccnc12 | inactive: -0.293
CNC[C@H](O)c1ccc(O)c(O)c1.O=C(O)C(O)C(O)C(=O)O [(-)-Epinephrine bitartrate] | active: -3.65
O=C(CCCN1CCC2(CC1)C(=O)NCN2c1ccccc1)c1ccc(F)cc1 | inactive: 2.93
COc1cc(C/C=C/c2ccccc2)c(OC)cc1O | inactive: 2.6
CCC(=O)Oc1ccc2c(c1)CC[C@@H]1[C@@H]2CC[C@]2(C)[C@@H](OC(=O)CC)CC[C@@H]12 [17-Beta-Estradiol-3,17-Dipropionate] | inactive: 1.99
CO/N=C(\C(=O)N[C@@H]1C(=O)N2C(C(=O)OCOC(=O)C(C)(C)C)=C(/C=C\c3scnc3C)CS[C@H]12)c1csc(N)n1 [Cefditoren pivoxil] | inactive: 3.28
CCOc1nc2cccc(C(=O)OC(C)OC(=O)OC3CCCCC3)c2n1Cc1ccc(-c2ccccc2-c2nn[nH]n2)cc1 (centres undefined) [Candesartan Cilexetil] | inactive: -2.14
O=c1ccn([C@@H]2O[C@H](COP(=O)([O-])OP(=O)([O-])O)[C@@H](O)[C@H]2O)c(=O)[nH]1.[Na+].[Na+] [Uridine 5'-diphosphate sodium] | inactive: 2.48
Nc1ncn([C@H]2C[C@H](O)[C@@H](CO)O2)c(=O)n1 [Decitabine] | inactive: 1.58
COC(=O)C1=C(C)NC(C)=C(C(=O)OCCN(C)Cc2ccccc2)C1c1cccc([N+](=O)[O-])c1.Cl (centres undefined) [Nicardipine hydrochloride] | inactive: 1.78
CC(CCc1ccc(O)cc1)NCCc1ccc(O)c(O)c1.Cl (centres undefined) [Dobutamine hydrochloride] | inactive: -1.1
COc1nc(C)cnc1NS(=O)(=O)c1cccnc1-c1ccc(-c2nnco2)cc1 [Zibotentan (ZD4054)] | inactive: 2.14
Cl.O[Si](CCCN1CCCCC1)(c1ccc(F)cc1)C1CCCCC1 (centres undefined) [Hexahydro-sila-difenidol hydrochloride, p-fluoro analog] | inactive: -1.29
NC(Cn1ccc(=O)c(O)c1)C(=O)O (centres undefined) | inactive: 2.2
CCN(CC)CCOCCOC(=O)C(CC)(CC)c1ccccc1.O=C(O)CC(O)(CC(=O)O)C(=O)O | inactive: 3.3
NC(Cc1ccc(F)cc1)C(=O)O (centres undefined) | inactive: 3.02
C/C(=C\c1csc(C)n1)[C@@H]1C[C@@H]2O[C@]2(C)CCC[C@H](C)[C@H](O)[C@@H](C)C(=O)C(C)(C)[C@@H](O)CC(=O)N1 [Ixabepilone] | inactive: 0.538
CCCCC(CC)COc1ccc(-c2nc(-c3ccc(OC)cc3)nc(-c3ccc(OCC(CC)CCCC)cc3O)n2)c(O)c1.NCCO.NCCO (centres undefined) | inactive: 3.46

Rewritten tab-delimited: entries from further up.
Structure (SMILES)	cell-cell fusion (z-score)
CO/N=C(\C(=O)N[C@@H]1C(=O)N2C(C(=O)OCOC(=O)C(C)(C)C)=C(/C=C\c3scnc3C)CS[C@H]12)c1csc(N)n1 [Cefditoren pivoxil]	inactive: 3.28
CCOc1nc2cccc(C(=O)OC(C)OC(=O)OC3CCCCC3)c2n1Cc1ccc(-c2ccccc2-c2nn[nH]n2)cc1 (centres undefined) [Candesartan Cilexetil]	inactive: -2.14
